log2 fold change data for 32 targets are collected here from the supplement of paper PMC10849652.

Protein sequences, listed by entry. Tags and fused reporters are not part of them. Lines headed by an entry give the natural chain unless they say otherwise; changes in a name come on top.
UniProt P55809: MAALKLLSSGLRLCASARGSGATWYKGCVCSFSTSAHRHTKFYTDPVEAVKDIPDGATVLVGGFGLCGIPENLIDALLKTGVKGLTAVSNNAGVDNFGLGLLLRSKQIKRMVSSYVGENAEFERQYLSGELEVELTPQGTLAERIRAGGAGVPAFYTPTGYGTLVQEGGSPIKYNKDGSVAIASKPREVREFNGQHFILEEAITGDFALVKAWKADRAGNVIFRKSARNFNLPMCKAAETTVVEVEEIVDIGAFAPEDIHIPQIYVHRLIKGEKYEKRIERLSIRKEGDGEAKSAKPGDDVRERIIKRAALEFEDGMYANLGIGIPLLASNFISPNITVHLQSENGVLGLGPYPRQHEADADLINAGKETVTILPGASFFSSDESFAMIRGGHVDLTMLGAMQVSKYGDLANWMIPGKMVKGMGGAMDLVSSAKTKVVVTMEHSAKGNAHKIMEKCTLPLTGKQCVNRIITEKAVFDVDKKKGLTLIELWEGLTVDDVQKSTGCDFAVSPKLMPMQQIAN
UniProt Q5TFE4: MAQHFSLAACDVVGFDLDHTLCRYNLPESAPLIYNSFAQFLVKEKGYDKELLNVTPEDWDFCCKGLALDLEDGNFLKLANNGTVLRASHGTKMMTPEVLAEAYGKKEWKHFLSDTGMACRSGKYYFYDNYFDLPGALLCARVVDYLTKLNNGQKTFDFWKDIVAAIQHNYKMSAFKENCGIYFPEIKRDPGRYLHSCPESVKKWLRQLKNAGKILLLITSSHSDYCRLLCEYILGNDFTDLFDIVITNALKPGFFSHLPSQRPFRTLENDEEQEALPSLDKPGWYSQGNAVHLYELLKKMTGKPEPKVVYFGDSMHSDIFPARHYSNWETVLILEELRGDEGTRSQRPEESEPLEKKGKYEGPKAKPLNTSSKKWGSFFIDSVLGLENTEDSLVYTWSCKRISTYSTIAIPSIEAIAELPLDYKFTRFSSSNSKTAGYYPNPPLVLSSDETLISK
UniProt P49902: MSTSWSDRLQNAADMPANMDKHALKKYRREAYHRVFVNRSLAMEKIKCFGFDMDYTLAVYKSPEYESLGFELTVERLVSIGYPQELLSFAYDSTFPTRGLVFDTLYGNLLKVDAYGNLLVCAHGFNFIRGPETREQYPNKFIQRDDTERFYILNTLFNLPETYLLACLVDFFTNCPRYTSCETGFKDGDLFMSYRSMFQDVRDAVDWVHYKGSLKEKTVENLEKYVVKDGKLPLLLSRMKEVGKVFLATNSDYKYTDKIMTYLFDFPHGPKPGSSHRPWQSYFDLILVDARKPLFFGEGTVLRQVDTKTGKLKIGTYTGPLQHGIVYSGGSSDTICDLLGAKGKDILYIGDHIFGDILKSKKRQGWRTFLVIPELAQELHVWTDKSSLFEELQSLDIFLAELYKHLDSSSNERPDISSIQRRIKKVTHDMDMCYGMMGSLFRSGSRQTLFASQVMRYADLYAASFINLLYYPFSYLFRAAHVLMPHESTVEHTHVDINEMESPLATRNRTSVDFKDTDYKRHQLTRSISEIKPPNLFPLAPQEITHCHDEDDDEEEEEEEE
UniProt Q96G74: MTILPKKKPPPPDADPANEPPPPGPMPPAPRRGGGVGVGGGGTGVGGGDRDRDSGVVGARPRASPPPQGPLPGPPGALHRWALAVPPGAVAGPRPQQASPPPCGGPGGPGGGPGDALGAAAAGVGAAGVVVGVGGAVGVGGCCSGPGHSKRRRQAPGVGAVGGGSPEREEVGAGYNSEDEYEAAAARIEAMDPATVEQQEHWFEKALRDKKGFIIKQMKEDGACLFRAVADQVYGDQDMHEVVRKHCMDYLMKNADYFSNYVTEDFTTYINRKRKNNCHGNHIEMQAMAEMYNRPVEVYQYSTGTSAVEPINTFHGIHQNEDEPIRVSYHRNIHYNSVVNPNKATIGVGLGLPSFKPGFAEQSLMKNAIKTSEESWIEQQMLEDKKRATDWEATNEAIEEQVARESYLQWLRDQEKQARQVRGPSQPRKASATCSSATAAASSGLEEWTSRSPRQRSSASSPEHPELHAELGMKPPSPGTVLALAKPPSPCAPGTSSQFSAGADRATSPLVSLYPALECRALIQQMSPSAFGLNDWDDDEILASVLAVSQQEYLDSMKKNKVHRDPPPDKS
UniProt O14841: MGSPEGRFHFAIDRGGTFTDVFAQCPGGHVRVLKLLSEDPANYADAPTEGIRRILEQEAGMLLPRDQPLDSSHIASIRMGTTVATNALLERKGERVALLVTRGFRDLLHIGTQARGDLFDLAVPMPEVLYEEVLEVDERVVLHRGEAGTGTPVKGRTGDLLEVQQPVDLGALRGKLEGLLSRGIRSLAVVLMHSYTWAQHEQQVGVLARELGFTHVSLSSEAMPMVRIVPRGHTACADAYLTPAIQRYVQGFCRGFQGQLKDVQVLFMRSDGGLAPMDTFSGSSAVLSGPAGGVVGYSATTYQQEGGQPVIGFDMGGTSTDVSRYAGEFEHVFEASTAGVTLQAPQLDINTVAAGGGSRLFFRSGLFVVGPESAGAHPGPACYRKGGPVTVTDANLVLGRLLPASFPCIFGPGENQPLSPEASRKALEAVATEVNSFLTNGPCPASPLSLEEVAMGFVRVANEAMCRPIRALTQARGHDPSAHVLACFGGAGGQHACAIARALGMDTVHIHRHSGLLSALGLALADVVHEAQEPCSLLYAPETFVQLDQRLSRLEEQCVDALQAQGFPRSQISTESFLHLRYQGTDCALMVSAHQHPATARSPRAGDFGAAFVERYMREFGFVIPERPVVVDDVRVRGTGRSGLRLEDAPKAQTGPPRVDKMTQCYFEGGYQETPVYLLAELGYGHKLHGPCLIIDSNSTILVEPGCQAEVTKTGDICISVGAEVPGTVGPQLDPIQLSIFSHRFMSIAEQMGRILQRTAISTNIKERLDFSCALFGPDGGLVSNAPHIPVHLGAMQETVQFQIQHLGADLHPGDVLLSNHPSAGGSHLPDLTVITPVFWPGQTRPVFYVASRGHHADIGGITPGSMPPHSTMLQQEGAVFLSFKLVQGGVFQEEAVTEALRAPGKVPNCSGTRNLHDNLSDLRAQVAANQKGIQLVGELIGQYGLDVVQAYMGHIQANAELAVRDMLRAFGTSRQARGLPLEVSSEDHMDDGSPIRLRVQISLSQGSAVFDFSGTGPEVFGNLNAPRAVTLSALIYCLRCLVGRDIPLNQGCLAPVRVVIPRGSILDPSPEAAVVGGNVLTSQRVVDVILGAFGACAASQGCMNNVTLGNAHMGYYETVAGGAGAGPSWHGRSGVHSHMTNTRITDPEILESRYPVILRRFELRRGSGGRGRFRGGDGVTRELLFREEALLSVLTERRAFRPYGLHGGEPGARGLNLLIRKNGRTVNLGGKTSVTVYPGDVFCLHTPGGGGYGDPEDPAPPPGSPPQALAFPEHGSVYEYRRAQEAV
UniProt O43809, whole entry, looked up: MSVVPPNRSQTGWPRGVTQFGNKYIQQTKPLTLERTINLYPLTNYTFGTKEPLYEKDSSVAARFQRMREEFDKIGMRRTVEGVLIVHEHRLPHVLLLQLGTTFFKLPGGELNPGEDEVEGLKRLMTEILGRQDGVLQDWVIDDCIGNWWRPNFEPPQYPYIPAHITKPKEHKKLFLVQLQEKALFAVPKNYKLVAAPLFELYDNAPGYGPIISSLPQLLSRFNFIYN
UniProt Q8TCD5: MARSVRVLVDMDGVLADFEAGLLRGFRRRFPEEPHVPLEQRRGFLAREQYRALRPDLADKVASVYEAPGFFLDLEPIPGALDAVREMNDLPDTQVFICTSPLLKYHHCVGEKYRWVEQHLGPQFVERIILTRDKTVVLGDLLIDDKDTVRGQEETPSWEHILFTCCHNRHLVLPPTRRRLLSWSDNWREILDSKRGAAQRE
UniProt P53384: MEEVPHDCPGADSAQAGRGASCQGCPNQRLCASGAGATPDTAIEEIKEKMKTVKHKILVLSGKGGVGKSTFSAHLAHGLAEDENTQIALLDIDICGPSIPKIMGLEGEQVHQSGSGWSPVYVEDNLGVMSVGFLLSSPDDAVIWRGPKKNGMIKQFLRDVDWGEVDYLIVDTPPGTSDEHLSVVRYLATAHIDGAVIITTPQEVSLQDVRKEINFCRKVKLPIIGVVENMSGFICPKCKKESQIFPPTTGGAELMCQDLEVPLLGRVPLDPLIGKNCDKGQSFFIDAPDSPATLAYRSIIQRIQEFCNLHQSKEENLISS
UniProt Q02818: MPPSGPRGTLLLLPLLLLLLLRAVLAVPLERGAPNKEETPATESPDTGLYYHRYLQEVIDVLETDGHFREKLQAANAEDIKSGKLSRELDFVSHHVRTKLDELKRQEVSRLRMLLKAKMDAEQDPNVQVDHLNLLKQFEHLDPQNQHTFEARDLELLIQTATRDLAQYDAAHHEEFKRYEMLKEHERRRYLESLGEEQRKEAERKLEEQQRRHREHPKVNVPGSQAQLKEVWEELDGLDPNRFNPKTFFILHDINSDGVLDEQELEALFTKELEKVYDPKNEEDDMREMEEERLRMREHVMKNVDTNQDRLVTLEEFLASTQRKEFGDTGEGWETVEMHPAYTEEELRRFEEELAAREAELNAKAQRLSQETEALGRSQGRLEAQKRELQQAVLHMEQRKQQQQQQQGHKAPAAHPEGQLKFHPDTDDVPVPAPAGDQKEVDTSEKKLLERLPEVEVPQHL
UniProt O15504: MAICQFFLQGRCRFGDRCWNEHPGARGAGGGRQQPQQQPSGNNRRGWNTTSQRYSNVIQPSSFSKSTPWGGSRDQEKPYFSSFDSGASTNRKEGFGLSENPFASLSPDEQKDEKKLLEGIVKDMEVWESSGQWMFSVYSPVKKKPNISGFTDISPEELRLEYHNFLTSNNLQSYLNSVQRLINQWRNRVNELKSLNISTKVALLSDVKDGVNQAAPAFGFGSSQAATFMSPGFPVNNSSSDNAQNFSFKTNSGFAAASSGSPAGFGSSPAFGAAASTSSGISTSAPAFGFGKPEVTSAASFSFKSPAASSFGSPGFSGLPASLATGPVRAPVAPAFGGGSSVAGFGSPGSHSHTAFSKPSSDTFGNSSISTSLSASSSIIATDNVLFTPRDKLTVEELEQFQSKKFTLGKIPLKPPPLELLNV
UniProt Q8WUM0: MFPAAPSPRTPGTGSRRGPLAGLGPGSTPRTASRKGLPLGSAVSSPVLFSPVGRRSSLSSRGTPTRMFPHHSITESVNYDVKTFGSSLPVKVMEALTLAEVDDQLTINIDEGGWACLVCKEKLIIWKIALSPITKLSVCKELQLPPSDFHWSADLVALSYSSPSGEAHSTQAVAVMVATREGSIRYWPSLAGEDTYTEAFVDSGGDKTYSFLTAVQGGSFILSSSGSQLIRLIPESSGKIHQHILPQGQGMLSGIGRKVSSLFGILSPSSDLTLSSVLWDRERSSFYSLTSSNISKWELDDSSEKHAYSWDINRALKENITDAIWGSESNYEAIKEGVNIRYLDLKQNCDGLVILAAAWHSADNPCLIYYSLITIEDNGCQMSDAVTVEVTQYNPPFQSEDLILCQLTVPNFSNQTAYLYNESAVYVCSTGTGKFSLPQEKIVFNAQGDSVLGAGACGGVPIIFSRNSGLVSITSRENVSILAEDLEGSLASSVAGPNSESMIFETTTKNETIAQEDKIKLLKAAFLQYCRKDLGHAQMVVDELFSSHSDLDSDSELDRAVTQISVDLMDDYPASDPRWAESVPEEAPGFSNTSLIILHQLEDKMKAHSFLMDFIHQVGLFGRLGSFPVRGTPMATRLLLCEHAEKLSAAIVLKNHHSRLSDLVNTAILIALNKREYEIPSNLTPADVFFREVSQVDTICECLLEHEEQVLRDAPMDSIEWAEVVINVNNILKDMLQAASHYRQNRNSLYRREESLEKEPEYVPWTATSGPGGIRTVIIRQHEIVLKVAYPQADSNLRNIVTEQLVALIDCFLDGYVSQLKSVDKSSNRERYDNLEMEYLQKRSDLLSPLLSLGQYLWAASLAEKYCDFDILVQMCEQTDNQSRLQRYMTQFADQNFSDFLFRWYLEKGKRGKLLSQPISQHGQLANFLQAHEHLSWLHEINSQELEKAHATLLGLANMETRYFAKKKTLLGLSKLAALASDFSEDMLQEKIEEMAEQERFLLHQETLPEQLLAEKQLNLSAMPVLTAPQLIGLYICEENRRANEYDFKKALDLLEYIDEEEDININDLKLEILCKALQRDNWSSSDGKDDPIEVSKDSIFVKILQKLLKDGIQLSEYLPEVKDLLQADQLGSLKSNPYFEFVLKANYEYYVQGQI
UniProt Q8TB37: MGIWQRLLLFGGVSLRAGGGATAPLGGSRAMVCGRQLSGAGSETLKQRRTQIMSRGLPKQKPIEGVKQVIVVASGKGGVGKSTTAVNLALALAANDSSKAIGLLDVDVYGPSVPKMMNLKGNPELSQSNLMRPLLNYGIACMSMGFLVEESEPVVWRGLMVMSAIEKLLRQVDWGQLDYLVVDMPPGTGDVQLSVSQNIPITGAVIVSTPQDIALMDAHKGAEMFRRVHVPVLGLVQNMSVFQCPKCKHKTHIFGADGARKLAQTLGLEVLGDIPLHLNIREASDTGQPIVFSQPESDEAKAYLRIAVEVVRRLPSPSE

Some of the results follow.

Compound in one assay: Cc1nc(Nc2n[nH]c3c2CN(C(=O)N[C@H](CN(C)C)c2ccccc2)C3(C)C)c2sccc2n1
The assay is described as follows: log2 fold change, soluble protein after heating vs DMSO (PISA); higher = thermal stabilisation; K562 cells, 10 uM, 30 min; active = over 0.2 and 3.5 SD of the protein, either way, in both replicates (recomputed). In short, it runs like this: (§1)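 Aliquots of K562 cells (2×10^6 cells/mL) treated with 10 μM compound for 30 min were heated for 3 min over 48°C-58°C. After pooling and extraction in PBS with 0.5% NP-40 at 4°C, soluble protein from a 21,000xg, 90 min spin was quantified by TMTpro 16plex LC-MS/MS with channel sums equalised. Thermal stability is expressed against control samples, from duplicates, as a log2 fold change.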
As for OSBPL8 (UniProt Q9BZF1), the log2 fold change was inactive: -0.086.

With OXCT1 (UniProt P55809), the log2 fold change was inactive: -0.013.

NUDT5 (UniProt Q9UKK9): the log2 fold change is inactive: 0.018.

Consider NUP214 isoform 5 (UniProt P35658), for which the log2 fold change is inactive: -0.056.

On to NT5DC1 (UniProt Q5TFE4), for which the log2 fold change is inactive: 0.069.

On to NUSAP1 (UniProt Q9BXS6), for which the log2 fold change was inactive: 0.108.

Turning to NUB1 (UniProt Q9Y5A7), the log2 fold change was inactive: -0.088.

Consider NT5C2 (UniProt P49902), for which the log2 fold change is inactive: -0.029.

As to NUP85 (UniProt Q9BW27), the log2 fold change is inactive: -0.115.

Consider OGFOD1 (UniProt Q8N543), for which the log2 fold change is inactive: 0.039.

In the case of ORC3 isoform 2 (UniProt Q9UBD5), the log2 fold change was inactive: -0.254.

Turning to NUP93 (UniProt Q8N1F7), the log2 fold change is inactive: -0.052.

With OTUD5 isoform 5 (UniProt Q96G74), the log2 fold change was inactive: -0.044.

In the case of OPLAH (UniProt O14841), the log2 fold change is inactive: 0.016.

For the target OIP5 (UniProt O43482), the log2 fold change was inactive: 0.068.

As for NUDT4 (UniProt Q9NZJ9), the log2 fold change was inactive: -0.055.

As to NUDT21 (UniProt O43809), the log2 fold change was active: -0.798.

Consider NT5C (UniProt Q8TCD5), for which the log2 fold change was inactive: 0.013.

As for OS9 (UniProt Q13438), the log2 fold change was inactive: 0.025.

In the case of NUP155 (UniProt O75694), the log2 fold change is inactive: -0.005.

For the target NUP37 (UniProt Q8NFH4), the log2 fold change was inactive: -0.015.

On to NUBP1 (UniProt P53384), for which the log2 fold change was inactive: 0.013.

For the target NUCKS1 (UniProt Q9H1E3), the log2 fold change is inactive: -0.13.

As to NUDT16L1 (UniProt Q9BRJ7), the log2 fold change was inactive: 0.016.

Consider OTC (UniProt P00480), for which the log2 fold change was inactive: 0.106.

With NUDT3 (UniProt O95989), the log2 fold change is inactive: 0.001.

On to NUDC (UniProt Q9Y266), for which the log2 fold change was inactive: -0.012.

For NUCB1 (UniProt Q02818), the log2 fold change is inactive: 0.012.

NUP42 (UniProt O15504): the log2 fold change was inactive: -0.043.

For the target NUP133 (UniProt Q8WUM0), the log2 fold change was inactive: -0.076.

Regarding ODR4 (UniProt Q5SWX8), the log2 fold change is inactive: -0.004.

In the case of NUBPL (UniProt Q8TB37), the log2 fold change was inactive: -0.155.

Compound in another assay: Cc1nc(Nc2ncc(C(=O)Nc3c(C)cccc3Cl)s2)cc(N2CCN(CCO)CC2)n1 [dasatinib]
The description is as above. The essentials:
as §1
As to OSBPL8 (UniProt Q9BZF1), the log2 fold change is inactive: 0.066.

As for OXCT1 (UniProt P55809), the log2 fold change was inactive: -0.007.

Consider NUDT5 (UniProt Q9UKK9), for which the log2 fold change is inactive: 0.055.

In the case of NUP214 isoform 5 (UniProt P35658), the log2 fold change is inactive: -0.029.

In the case of NT5DC1 (UniProt Q5TFE4), the log2 fold change is inactive: 0.033.

Regarding NUSAP1 (UniProt Q9BXS6), the log2 fold change is inactive: 0.15.

As for NUB1 (UniProt Q9Y5A7), the log2 fold change is inactive: -0.041.

On to NT5C2 (UniProt P49902), for which the log2 fold change is inactive: 0.036.

For NUP85 (UniProt Q9BW27), the log2 fold change was inactive: -0.068.

Take OGFOD1 (UniProt Q8N543): the log2 fold change was inactive: -0.009.

For the target ORC3 isoform 2 (UniProt Q9UBD5), the log2 fold change was inactive: -0.298.

Turning to NUP93 (UniProt Q8N1F7), the log2 fold change was inactive: -0.092.

OTUD5 isoform 5 (UniProt Q96G74): the log2 fold change is inactive: -0.039.

In the case of OPLAH (UniProt O14841), the log2 fold change was inactive: -0.042.

As for OIP5 (UniProt O43482), the log2 fold change was inactive: 0.052.

For NUDT4 (UniProt Q9NZJ9), the log2 fold change is inactive: -0.06.

Take NUDT21 (UniProt O43809): the log2 fold change is inactive: 0.031.

Regarding NT5C (UniProt Q8TCD5), the log2 fold change is inactive: 0.031.

Turning to OS9 (UniProt Q13438), the log2 fold change was inactive: 0.03.

For NUP155 (UniProt O75694), the log2 fold change was inactive: -0.152.

For NUP37 (UniProt Q8NFH4), the log2 fold change was inactive: 0.048.

As to NUBP1 (UniProt P53384), the log2 fold change was inactive: -0.081.

With NUCKS1 (UniProt Q9H1E3), the log2 fold change is inactive: 0.037.

On to NUDT16L1 (UniProt Q9BRJ7), for which the log2 fold change was inactive: 0.024.

With OTC (UniProt P00480), the log2 fold change was inactive: 0.107.

Turning to NUDT3 (UniProt O95989), the log2 fold change is inactive: 0.07.

As to NUDC (UniProt Q9Y266), the log2 fold change was inactive: -0.017.

For NUCB1 (UniProt Q02818), the log2 fold change was inactive: 0.042.

Take NUP42 (UniProt O15504): the log2 fold change is inactive: 0.148.

As to NUP133 (UniProt Q8WUM0), the log2 fold change is inactive: -0.038.

Take ODR4 (UniProt Q5SWX8): the log2 fold change is inactive: -0.072.

As to NUBPL (UniProt Q8TB37), the log2 fold change was inactive: 0.074.

Compound in another assay: Cc1ncc(-c2ccnc(Nc3ccc(S(C)(=O)=O)cc3)n2)n1C(C)C
Described as above. In short, it runs like this:
as §1
On to OSBPL8 (UniProt Q9BZF1), for which the log2 fold change is inactive: -0.047.

For the target OXCT1 (UniProt P55809), the log2 fold change was inactive: -0.022.

As to NUDT5 (UniProt Q9UKK9), the log2 fold change is inactive: 0.018.

Turning to NUP214 isoform 5 (UniProt P35658), the log2 fold change was inactive: -0.046.

For NT5DC1 (UniProt Q5TFE4), the log2 fold change is inactive: -0.016.

As to NUSAP1 (UniProt Q9BXS6), the log2 fold change is inactive: -0.032.

Regarding NUB1 (UniProt Q9Y5A7), the log2 fold change was inactive: -0.054.

With NT5C2 (UniProt P49902), the log2 fold change is inactive: -0.013.

Turning to NUP85 (UniProt Q9BW27), the log2 fold change was inactive: -0.013.

Turning to OGFOD1 (UniProt Q8N543), the log2 fold change is inactive: -0.021.

For the target ORC3 isoform 2 (UniProt Q9UBD5), the log2 fold change was inactive: -0.118.

Take NUP93 (UniProt Q8N1F7): the log2 fold change is inactive: 0.021.

As to OTUD5 isoform 5 (UniProt Q96G74), the log2 fold change was inactive: -0.033.

Take OPLAH (UniProt O14841): the log2 fold change is inactive: -0.024.

On to OIP5 (UniProt O43482), for which the log2 fold change is inactive: -0.029.

Consider NUDT4 (UniProt Q9NZJ9), for which the log2 fold change was inactive: 0.006.

For the target NUDT21 (UniProt O43809), the log2 fold change is inactive: 0.051.

With NT5C (UniProt Q8TCD5), the log2 fold change is inactive: -0.009.

For the target OS9 (UniProt Q13438), the log2 fold change was inactive: -0.029.

On to NUP155 (UniProt O75694), for which the log2 fold change was inactive: 0.006.

Take NUP37 (UniProt Q8NFH4): the log2 fold change was inactive: -0.009.

With NUBP1 (UniProt P53384), the log2 fold change is inactive: -0.021.

In the case of NUCKS1 (UniProt Q9H1E3), the log2 fold change is inactive: 0.169.

As for NUDT16L1 (UniProt Q9BRJ7), the log2 fold change was inactive: 0.029.

Regarding OTC (UniProt P00480), the log2 fold change is inactive: -0.054.

For NUDT3 (UniProt O95989), the log2 fold change was inactive: -0.028.

With NUDC (UniProt Q9Y266), the log2 fold change was inactive: -0.018.

For the target NUCB1 (UniProt Q02818), the log2 fold change was inactive: -0.026.

As for NUP42 (UniProt O15504), the log2 fold change is inactive: -0.143.

On to NUP133 (UniProt Q8WUM0), for which the log2 fold change is inactive: 0.

On to ODR4 (UniProt Q5SWX8), for which the log2 fold change was inactive: -0.033.

In the case of NUBPL (UniProt Q8TB37), the log2 fold change is inactive: 0.055.
